Experimental data: the supplement of paper PMC3334620
Over roughly 33,000 sequences, “E-score (-0.5 to 0.5)” has its median near -0.016; the highest 2% begin near 0.3. The list shows a part of the results.

biological target: T1, Yer184c (UniProt P39961); assay: PBM E-score (8-mer binding enrichment) (E-score (-0.5 to 0.5)); higher = stronger / more preferred TF binding; conditions: protein concentration: 100 nM; construct: GST-full length
T1 sequence: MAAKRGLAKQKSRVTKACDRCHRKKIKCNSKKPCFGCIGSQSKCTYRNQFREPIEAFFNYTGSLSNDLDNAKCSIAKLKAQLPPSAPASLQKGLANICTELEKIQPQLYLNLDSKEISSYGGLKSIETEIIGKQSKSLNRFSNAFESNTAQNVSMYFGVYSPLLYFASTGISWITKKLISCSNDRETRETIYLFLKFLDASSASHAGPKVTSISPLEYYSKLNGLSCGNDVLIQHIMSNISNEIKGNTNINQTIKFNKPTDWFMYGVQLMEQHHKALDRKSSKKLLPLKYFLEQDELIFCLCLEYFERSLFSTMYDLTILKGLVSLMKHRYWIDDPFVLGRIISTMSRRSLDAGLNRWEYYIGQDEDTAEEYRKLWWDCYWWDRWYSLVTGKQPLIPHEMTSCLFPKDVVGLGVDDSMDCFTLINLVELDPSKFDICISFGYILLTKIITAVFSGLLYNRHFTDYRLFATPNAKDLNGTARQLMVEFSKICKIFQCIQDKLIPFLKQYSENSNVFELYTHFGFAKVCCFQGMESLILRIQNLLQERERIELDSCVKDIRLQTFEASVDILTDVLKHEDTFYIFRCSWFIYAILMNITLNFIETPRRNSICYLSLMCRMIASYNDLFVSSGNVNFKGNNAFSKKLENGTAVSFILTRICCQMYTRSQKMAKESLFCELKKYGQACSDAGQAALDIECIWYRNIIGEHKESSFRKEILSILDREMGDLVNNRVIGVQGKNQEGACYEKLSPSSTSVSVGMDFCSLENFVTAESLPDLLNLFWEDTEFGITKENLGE
Outline: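 Yeast transcription factors, full-length or as DNA-binding domains, were expressed with a GST tag using PURExpress in vitro transcription/translation. At about 100-200 nM they were applied to universal all-10-mer Agilent arrays, double-stranded by primer extension on fresh or once-stripped slides. Fluorescent anti-GST detected bound protein, and masliner normalised the scans. E-scores for ungapped eight-base words, pooled with reverse complements, came from the Universal PBM Analysis Suite.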

Sequence | PBM E-score
CATTATTA | 0.0899
GCAAGGTA | -0.0603
CAGCCCCA | -0.279
GGATACAA | 0.117
CCTATGAA | -0.0384
TGGGGACA | -0.2
GAGTCTCA | -0.137
AGACATTA | 0.0119
CAAAGGCG | -0.0505
ATTGTGAA | 0.0416
CTGTTCTC | 0.03
CGACAAAG | 0.162
AAGTTTTC | 0.17
ATTCCTGC | 0.0275
CGCGAACC | 0.139
CCCTCGGC | 0.282
GAGTCTCC | -0.0445
CAAATCTA | -0.0581
GCAAACAC | -0.0972
GAACCCGA | 0.0906
CAGAACGC | -0.0829
GCACTACC | -0.00491

Sequence | PBM E-score
GCAATCCC | 0.0287
GAATGAAC | 0.197
AGGTAACA | 0.0395
ACAGTCGA | -0.165
AAGCAGCG | 0.0829
AAAAGAAA | 0.236
AGTTCTGA | 0.0568
ATTCCGGG | 0.356
AGGTAATC | 0.0784
CGCGTATC | -0.052
AAAGGGCA | -0.226
ATAAGACA | -0.0537
CAACTTCA | -0.027
TGGGAACA | -0.0108
CTGCTTAC | -0.142
ACAACAGC | 0.0103
AGCCCACG | -0.0881
ACGCAAAG | -0.113
AAAGTCCT | -0.0231
GTGTCTAA | 0.122
ACGACTTG | -0.175
CATGAAGA | 0.091

As entered above:
PBM E-score, GAATGAAC is entered as 0.197
PBM E-score, AGTTCTGA is entered as 0.0568
PBM E-score, AGCCCACG is entered as -0.0881
PBM E-score, AGGTAACA is entered as 0.0395

Additional entries follow:

Sequence | PBM E-score
AAGGGAGT | -0.301
GTCCTATA | -0.16
AGACGAAG | 0.0368
CGACGATA | 0.0675
AAATGCAA | -0.0304
AACGTGGA | -0.176
CTATAGGC | -0.049
CTTGAAAG | 0.0369
CCACCGAG | -0.154
GCGCGAGC | -0.0715
ACACTATG | 0.00249
ACTTGTAT | -0.0115
GGGCAACC | -0.121
AGCTCAAG | -0.145
CCGTCGAA | 0.0885
ACGAGGTA | -0.0467
AAATATTA | 0.206
ATCAATCC | 0.0215
CATATTTC | -0.00731
CCGATTGC | 0.18
CGTTCCCA | -0.157
CAACAATG | 0.102

Sequence | PBM E-score
CCCCATAG | -0.102
GTGGACAC | -0.146
ATAGTCCA | -0.0529
AGCATCAG | -0.131
CTGAGTTC | -0.0142
GGGGTGAC | -0.225
CTCACTCC | 0.012
GCACGCGA | 0.00413
CTAAGTCC | -0.206
CCGCAAAC | 0.144
TACCCAAA | -0.0411
CTGGCCGC | -0.117
CTCAGTAA | -0.0129
GAATAAGA | 0.00594
CTTGGTGA | -0.0525
AATTAAGC | 0.207
CCTGAGTA | -0.0972
AAATGCTG | 0.0174
AGCGATGG | -0.207
CATTTCGA | 0.019
CTGGAATC | -0.192
GAGCGGGA | -0.0463

Sequence | PBM E-score
TCATTGAA | -0.00041
GGGCACAC | -0.198
CACAGGCC | -0.148
CCGGAAGG | 0.28
AACTATGC | 0.154
CTTTAACC | -0.0345
AAGCCAAA | 0.0744
ACGTTGAG | -0.055
CATAGCCC | -0.362
ATAAACTG | 0.153
TAGAATAA | 0.128
AAATTATA | 0.205
CATCTGGC | -0.0761
AACCGTCG | 0.176
CCTATGCG | -0.148
ATCCCGCA | -0.0732
CATCGTGC | -0.0117
AAAAGCGA | 0.0954
GTCCTTGA | -0.00188
CGCAGAGC | -0.142
CTAACTGC | -0.207
AACCCCCC | -0.46
